Assay results reported in article PMC10337854.
Results are given in words; binding and its absence hold for the method and conditions named. In cells and extracts the contact can be indirect. Some entries that bind do so weakly or less than the wild type.

T1: ubiquitin-specific peptidase USP15 (human (endogenous in HCT116)) (UniProt Q9Y4E8)
T1 sequence: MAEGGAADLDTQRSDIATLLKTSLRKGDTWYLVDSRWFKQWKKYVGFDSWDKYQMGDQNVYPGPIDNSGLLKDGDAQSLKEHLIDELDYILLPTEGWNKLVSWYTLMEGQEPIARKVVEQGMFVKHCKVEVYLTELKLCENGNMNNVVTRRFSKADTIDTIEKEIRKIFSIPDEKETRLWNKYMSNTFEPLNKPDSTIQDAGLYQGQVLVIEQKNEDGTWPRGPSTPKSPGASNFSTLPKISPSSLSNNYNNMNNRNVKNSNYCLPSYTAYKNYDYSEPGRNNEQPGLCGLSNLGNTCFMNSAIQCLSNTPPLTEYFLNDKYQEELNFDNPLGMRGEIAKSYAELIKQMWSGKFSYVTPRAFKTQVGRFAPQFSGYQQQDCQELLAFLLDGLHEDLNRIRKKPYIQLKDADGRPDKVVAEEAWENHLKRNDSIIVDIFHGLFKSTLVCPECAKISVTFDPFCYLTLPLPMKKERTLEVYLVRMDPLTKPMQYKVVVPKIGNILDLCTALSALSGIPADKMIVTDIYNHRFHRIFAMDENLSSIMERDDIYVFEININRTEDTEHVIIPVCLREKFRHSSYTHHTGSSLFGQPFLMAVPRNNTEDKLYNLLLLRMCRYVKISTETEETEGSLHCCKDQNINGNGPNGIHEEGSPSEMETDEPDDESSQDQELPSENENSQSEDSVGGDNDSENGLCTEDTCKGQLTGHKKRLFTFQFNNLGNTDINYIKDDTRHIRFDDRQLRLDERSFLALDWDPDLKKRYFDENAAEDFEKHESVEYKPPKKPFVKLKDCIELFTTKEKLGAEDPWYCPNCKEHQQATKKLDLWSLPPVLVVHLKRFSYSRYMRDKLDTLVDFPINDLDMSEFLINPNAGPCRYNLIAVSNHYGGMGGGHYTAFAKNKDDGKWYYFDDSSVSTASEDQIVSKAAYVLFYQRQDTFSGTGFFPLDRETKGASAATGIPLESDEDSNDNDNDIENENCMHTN

T2: Squamous cell carcinoma antigen recognized by T cells 3 (SART3) (human (endogenous in HCT116)) (UniProt Q15020)
T2 sequence: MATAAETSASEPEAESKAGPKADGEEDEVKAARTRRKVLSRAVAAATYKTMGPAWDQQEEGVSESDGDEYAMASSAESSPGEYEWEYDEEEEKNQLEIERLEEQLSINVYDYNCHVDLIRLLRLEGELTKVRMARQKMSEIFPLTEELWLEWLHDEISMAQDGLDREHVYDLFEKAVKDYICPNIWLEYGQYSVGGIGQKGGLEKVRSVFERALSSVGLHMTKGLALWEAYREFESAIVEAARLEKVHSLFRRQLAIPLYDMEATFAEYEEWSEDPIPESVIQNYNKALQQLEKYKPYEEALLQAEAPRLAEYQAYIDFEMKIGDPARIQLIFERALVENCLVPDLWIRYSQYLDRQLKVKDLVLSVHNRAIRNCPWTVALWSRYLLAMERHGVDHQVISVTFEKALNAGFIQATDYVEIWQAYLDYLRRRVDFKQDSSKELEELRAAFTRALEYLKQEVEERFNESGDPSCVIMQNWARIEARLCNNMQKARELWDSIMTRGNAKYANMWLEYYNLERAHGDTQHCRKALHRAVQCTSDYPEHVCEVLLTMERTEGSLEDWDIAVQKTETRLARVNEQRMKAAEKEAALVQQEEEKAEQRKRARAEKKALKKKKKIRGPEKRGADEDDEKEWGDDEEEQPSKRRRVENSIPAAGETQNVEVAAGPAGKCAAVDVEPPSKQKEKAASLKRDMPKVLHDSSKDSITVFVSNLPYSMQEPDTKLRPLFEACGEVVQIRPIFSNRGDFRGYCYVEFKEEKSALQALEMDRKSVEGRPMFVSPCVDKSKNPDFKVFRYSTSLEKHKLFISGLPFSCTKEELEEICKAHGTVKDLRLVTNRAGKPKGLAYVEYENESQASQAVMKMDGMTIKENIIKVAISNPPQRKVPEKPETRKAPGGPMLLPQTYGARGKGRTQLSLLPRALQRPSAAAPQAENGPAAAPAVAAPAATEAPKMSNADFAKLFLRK


Columns and labels:
[1] = target: T1, ubiquitin-specific peptidase USP15 (human (endogenous in HCT116)); experiment: co-IP; lysates from HCT116 cells; immunoprecipitation with anti-SART3 antibody, anti-USP15 antibody, rabbit IgG or mouse IgG; blotted with anti-SART3, anti-USP15 or anti-GAPDH antibody
[2] = target: tumor suppressor p53 (human (endogenous in HCT116)) (UniProt P04637); experiment: co-IP; lysates from HCT116 cells transfected with siZNNT1 (or control); precipitated with anti-p53 antibody or mouse IgG, blotted with anti-SART3 and anti-actin antibodies
[3] = target: T2, Squamous cell carcinoma antigen recognized by T cells 3 (SART3) (human (endogenous in HCT116)); experiment: co-IP; lysates from HCT116 cells; immunoprecipitation with anti-SART3 antibody, anti-USP15 antibody, rabbit IgG or mouse IgG; blotted with anti-SART3, anti-USP15 or anti-GAPDH antibody

| binding [1] | binding [2] | binding [3] | Binder |
| --- | --- | --- | --- |
| binds | binds |  | Squamous cell carcinoma antigen recognized by T cells 3 (SART3) (protein, UniProt Q15020 1-963) MATAAETSASEPEAESKAGPKADGEEDEVKAARTRRKVLSRAVAAATYKTMGPAWDQQEEGVSESDGDEYAMASSAESSPGEYEWEYDEEEEKNQLEIERLEEQLSINVYDYNCHVDLIRLLRLEGELTKVRMARQKMSEIFPLTEELWLEWLHDEISMAQDGLDREHVYDLFEKAVKDYICPNIWLEYGQYSVGGIGQKGGLEKVRSVFERALSSVGLHMTKGLALWEAYREFESAIVEAARLEKVHSLFRRQLAIPLYDMEATFAEYEEWSEDPIPESVIQNYNKALQQLEKYKPYEEALLQAEAPRLAEYQAYIDFEMKIGDPARIQLIFERALVENCLVPDLWIRYSQYLDRQLKVKDLVLSVHNRAIRNCPWTVALWSRYLLAMERHGVDHQVISVTFEKALNAGFIQATDYVEIWQAYLDYLRRRVDFKQDSSKELEELRAAFTRALEYLKQEVEERFNESGDPSCVIMQNWARIEARLCNNMQKARELWDSIMTRGNAKYANMWLEYYNLERAHGDTQHCRKALHRAVQCTSDYPEHVCEVLLTMERTEGSLEDWDIAVQKTETRLARVNEQRMKAAEKEAALVQQEEEKAEQRKRARAEKKALKKKKKIRGPEKRGADEDDEKEWGDDEEEQPSKRRRVENSIPAAGETQNVEVAAGPAGKCAAVDVEPPSKQKEKAASLKRDMPKVLHDSSKDSITVFVSNLPYSMQEPDTKLRPLFEACGEVVQIRPIFSNRGDFRGYCYVEFKEEKSALQALEMDRKSVEGRPMFVSPCVDKSKNPDFKVFRYSTSLEKHKLFISGLPFSCTKEELEEICKAHGTVKDLRLVTNRAGKPKGLAYVEYENESQASQAVMKMDGMTIKENIIKVAISNPPQRKVPEKPETRKAPGGPMLLPQTYGARGKGRTQLSLLPRALQRPSAAAPQAENGPAAAPAVAAPAATEAPKMSNADFAKLFLRK |
|  |  | binds | ubiquitin-specific peptidase USP15 (enzyme, UniProt Q9Y4E8 1-981) MAEGGAADLDTQRSDIATLLKTSLRKGDTWYLVDSRWFKQWKKYVGFDSWDKYQMGDQNVYPGPIDNSGLLKDGDAQSLKEHLIDELDYILLPTEGWNKLVSWYTLMEGQEPIARKVVEQGMFVKHCKVEVYLTELKLCENGNMNNVVTRRFSKADTIDTIEKEIRKIFSIPDEKETRLWNKYMSNTFEPLNKPDSTIQDAGLYQGQVLVIEQKNEDGTWPRGPSTPKSPGASNFSTLPKISPSSLSNNYNNMNNRNVKNSNYCLPSYTAYKNYDYSEPGRNNEQPGLCGLSNLGNTCFMNSAIQCLSNTPPLTEYFLNDKYQEELNFDNPLGMRGEIAKSYAELIKQMWSGKFSYVTPRAFKTQVGRFAPQFSGYQQQDCQELLAFLLDGLHEDLNRIRKKPYIQLKDADGRPDKVVAEEAWENHLKRNDSIIVDIFHGLFKSTLVCPECAKISVTFDPFCYLTLPLPMKKERTLEVYLVRMDPLTKPMQYKVVVPKIGNILDLCTALSALSGIPADKMIVTDIYNHRFHRIFAMDENLSSIMERDDIYVFEININRTEDTEHVIIPVCLREKFRHSSYTHHTGSSLFGQPFLMAVPRNNTEDKLYNLLLLRMCRYVKISTETEETEGSLHCCKDQNINGNGPNGIHEEGSPSEMETDEPDDESSQDQELPSENENSQSEDSVGGDNDSENGLCTEDTCKGQLTGHKKRLFTFQFNNLGNTDINYIKDDTRHIRFDDRQLRLDERSFLALDWDPDLKKRYFDENAAEDFEKHESVEYKPPKKPFVKLKDCIELFTTKEKLGAEDPWYCPNCKEHQQATKKLDLWSLPPVLVVHLKRFSYSRYMRDKLDTLVDFPINDLDMSEFLINPNAGPCRYNLIAVSNHYGGMGGGHYTAFAKNKDDGKWYYFDDSSVSTASEDQIVSKAAYVLFYQRQDTFSGTGFFPLDRETKGASAATGIPLESDEDSNDNDNDIENENCMHTN |
